# Results from the supplement of paper PMC8728848.
# The list shows a part of the results.
# B1: OS9 (Arabidopsis thaliana) (protein)
# chain: MRGSHHHHHHGMASMTGGQQMGRDLYDDDDKSRLQIFPAHLVGTFSRNNREPKYKIEFLPEDSPFHPGDNLESMVMLDKHGNRFLCYLPKEEKATSGWTSSQQNISTVMMETQQLVKLKTPDELLQPLSEKCLFRQEGWWSYEFCHQKYVRQLHVEDENKIVQEFFLGTFDPEATAAFNQTVSDASTDASQRYHSHVYTNGTTCDLTGSPAEVEVRFVCAETRAMVTSITELSTCKYALTVQCPTLCKHPLFQLEKPVSHTIHCNAIPVEEDATRNKEEQAVDESPKMIADS
# How the values were obtained:
# Test in all cases: glycan array binding signal (z-score within array); higher = stronger binding
# Conditions in all cases: glycan notation: IUPAC condensed, linker removed; mutation: R201A
# [1] = biological target: GalNAc(b1-4)GlcNAc
# How it was run: (§1)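 Glycan array binding is given as a within-array Z-score, which can be read as non-binding when negative. The arrays, 3228 of them, came from the Consortium for Functional Glycomics database and were retained only where the protein sequence was available. Z-scores were averaged across arrays of the same protein sequence at different concentrations or buffers and across linkers.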
# [2] = biological target: GalNAc(b1-4)GlcNAc(b1-2)Man
# How it was run: as §1
# [3] = biological target: GalNAc(b1-4)GlcNAc(b1-2)Man(a1-3)[GalNAc(b1-4)GlcNAc(b1-2)Man(a1-6)]Man(b1-4)GlcNAc(b1-4)GlcNAc
# How it was run: as §1
# [4] = biological target: GalNAc(b1-4)GlcNAc(b1-3)GalNAc(b1-4)GlcNAc
# How it was run: as §1
# [5] = biological target: GalNAc(b1-4)GlcNAc6S
# How it was run: as §1
# [6] = biological target: GalNAc(b1-6)GalNAc
# How it was run: as §1
# [7] = biological target: GalNAc3S(b1-4)GlcNAc
# How it was run: as §1
# [8] = biological target: GalNAc3S(b1-4)GlcNAc3S
# How it was run: as §1
# [9] = biological target: GalNAc3S(b1-4)[Fuc(a1-3)]GlcNAc
# How it was run: as §1
# [10] = biological target: GalNAc4S6S(b1-4)GlcNAc
# How it was run: as §1
# [11] = biological target: GalNAc6S(b1-4)GlcNAc
# How it was run: as §1
# [12] = biological target: Glc(a1-4)Glc
# How it was run: as §1
# [13] = biological target: Glc(a1-4)Glc(a1-4)Glc(a1-4)Glc
# How it was run: as §1
# [14] = biological target: Glc(a1-6)Glc(a1-6)Glc
# How it was run: as §1
# [15] = biological target: Glc(a1-6)Glc(a1-6)Glc(a1-6)Glc
# How it was run: as §1
# [16] = biological target: Glc(b1-4)Glc
# How it was run: as §1
# [17] = biological target: Glc(b1-6)Glc
# How it was run: as §1
# [18] = biological target: GlcA(b1-3)Gal
# How it was run: as §1
# [19] = biological target: GlcA(b1-3)GlcNAc
# How it was run: as §1
# [20] = biological target: GlcA(b1-6)Gal
# How it was run: as §1
# [21] = biological target: GlcA3S(b1-3)Gal(b1-4)GlcNAc(b1-2)Man
# How it was run: as §1
# [22] = biological target: GlcA3S(b1-3)Gal(b1-4)GlcNAc(b1-3)Gal(b1-4)Glc
# How it was run: as §1
# [23] = biological target: GlcNAc(a1-3)Gal(b1-4)GlcNAc
# How it was run: as §1
# [24] = biological target: GlcNAc(a1-4)Gal(b1-3)GlcNAc
# How it was run: as §1
# [25] = biological target: GlcNAc(a1-4)Gal(b1-4)GalNAc
# How it was run: as §1
# [26] = biological target: GlcNAc(a1-4)Gal(b1-4)GlcNAc
# How it was run: as §1
# [27] = biological target: GlcNAc(a1-4)Gal(b1-4)GlcNAc(b1-3)Gal(b1-4)Glc
# How it was run: as §1
# [28] = biological target: GlcNAc(a1-4)Gal(b1-4)GlcNAc(b1-3)Gal(b1-4)GlcNAc
# How it was run: as §1
# [29] = biological target: GlcNAc(a1-4)Gal(b1-4)GlcNAc(b1-3)Gal(b1-4)GlcNAc(b1-3)Gal(b1-4)GlcNAc
# How it was run: as §1
# [30] = biological target: GlcNAc(a1-4)Gal(b1-4)GlcNAc(b1-3)Gal(b1-4)[Fuc(a1-3)]GlcNAc(b1-3)Gal(b1-4)[Fuc(a1-3)]GlcNAc
# How it was run: as §1
# [31] = biological target: GlcNAc(a1-6)Gal(b1-4)GlcNAc
# How it was run: as §1
# [32] = biological target: GlcNAc(b1-2)Gal(b1-3)GalNAc
# How it was run: as §1
# [33] = biological target: GlcNAc(b1-2)Man(a1-3)[GlcNAc(b1-2)Man(a1-6)]Man(b1-4)GlcNAc(b1-4)GlcNAc
# How it was run: as §1
# [34] = biological target: GlcNAc(b1-2)Man(a1-3)[GlcNAc(b1-2)Man(a1-6)]Man(b1-4)GlcNAc(b1-4)[Fuc(a1-6)]GlcNAc
# How it was run: as §1
# [35] = biological target: GlcNAc(b1-2)Man(a1-3)[GlcNAc(b1-4)][GlcNAc(b1-2)Man(a1-6)]Man(b1-4)GlcNAc(b1-4)GlcNAc
# How it was run: as §1
# [36] = biological target: GlcNAc(b1-2)Man(a1-3)[GlcNAc(b1-4)][GlcNAc(b1-2)Man(a1-6)]Man(b1-4)GlcNAc(b1-4)[Fuc(a1-6)]GlcNAc
# How it was run: as §1
# [37] = biological target: GlcNAc(b1-2)[GlcNAc(b1-4)]Man(a1-3)[GlcNAc(b1-2)Man(a1-6)]Man(b1-4)GlcNAc(b1-4)GlcNAc
# How it was run: as §1
binder,measurement,setting,value
B1,glycan array binding signal (z-score),[1],1.25
same,glycan array binding signal (z-score),[2],-0.093
same,glycan array binding signal (z-score),[3],-1.21
same,glycan array binding signal (z-score),[4],0.091
same,glycan array binding signal (z-score),[5],-0.261
same,glycan array binding signal (z-score),[6],-1.2
same,glycan array binding signal (z-score),[7],2.29
same,glycan array binding signal (z-score),[8],-0.743
same,glycan array binding signal (z-score),[9],-0.553
same,glycan array binding signal (z-score),[10],0.097
same,glycan array binding signal (z-score),[11],-0.347
same,glycan array binding signal (z-score),[12],1.08
same,glycan array binding signal (z-score),[13],-0.427
same,glycan array binding signal (z-score),[14],1.02
same,glycan array binding signal (z-score),[15],-1.12
same,glycan array binding signal (z-score),[16],2.1
same,glycan array binding signal (z-score),[17],0.913
same,glycan array binding signal (z-score),[18],-0.17
same,glycan array binding signal (z-score),[19],1.54
same,glycan array binding signal (z-score),[20],-0.033
same,glycan array binding signal (z-score),[21],-0.713
same,glycan array binding signal (z-score),[22],0.717
same,glycan array binding signal (z-score),[23],-0.897
same,glycan array binding signal (z-score),[24],1.02
same,glycan array binding signal (z-score),[25],0.085
same,glycan array binding signal (z-score),[26],-0.32
same,glycan array binding signal (z-score),[27],-0.492
same,glycan array binding signal (z-score),[28],-0.479
same,glycan array binding signal (z-score),[29],0.447
same,glycan array binding signal (z-score),[30],-0.263
same,glycan array binding signal (z-score),[31],-0.134
same,glycan array binding signal (z-score),[32],-1.1
same,glycan array binding signal (z-score),[33],-0.533
same,glycan array binding signal (z-score),[34],0.257
same,glycan array binding signal (z-score),[35],0.301
same,glycan array binding signal (z-score),[36],1.2
same,glycan array binding signal (z-score),[37],-0.032

# Reformatted: entries from further up
binder | measurement | setting | value
B1 | glycan array binding signal (z-score) | [20] | -0.033
same | glycan array binding signal (z-score) | [21] | -0.713
